Results as given in the supplement of paper PMC10849652.
Some of the results follow.

Sequences of proteins named here, by UniProt entry; tags and fusion partners are left off. A change or cut given only in a name is not applied to a line headed by its entry.
UniProt O75369, whole entry, looked up: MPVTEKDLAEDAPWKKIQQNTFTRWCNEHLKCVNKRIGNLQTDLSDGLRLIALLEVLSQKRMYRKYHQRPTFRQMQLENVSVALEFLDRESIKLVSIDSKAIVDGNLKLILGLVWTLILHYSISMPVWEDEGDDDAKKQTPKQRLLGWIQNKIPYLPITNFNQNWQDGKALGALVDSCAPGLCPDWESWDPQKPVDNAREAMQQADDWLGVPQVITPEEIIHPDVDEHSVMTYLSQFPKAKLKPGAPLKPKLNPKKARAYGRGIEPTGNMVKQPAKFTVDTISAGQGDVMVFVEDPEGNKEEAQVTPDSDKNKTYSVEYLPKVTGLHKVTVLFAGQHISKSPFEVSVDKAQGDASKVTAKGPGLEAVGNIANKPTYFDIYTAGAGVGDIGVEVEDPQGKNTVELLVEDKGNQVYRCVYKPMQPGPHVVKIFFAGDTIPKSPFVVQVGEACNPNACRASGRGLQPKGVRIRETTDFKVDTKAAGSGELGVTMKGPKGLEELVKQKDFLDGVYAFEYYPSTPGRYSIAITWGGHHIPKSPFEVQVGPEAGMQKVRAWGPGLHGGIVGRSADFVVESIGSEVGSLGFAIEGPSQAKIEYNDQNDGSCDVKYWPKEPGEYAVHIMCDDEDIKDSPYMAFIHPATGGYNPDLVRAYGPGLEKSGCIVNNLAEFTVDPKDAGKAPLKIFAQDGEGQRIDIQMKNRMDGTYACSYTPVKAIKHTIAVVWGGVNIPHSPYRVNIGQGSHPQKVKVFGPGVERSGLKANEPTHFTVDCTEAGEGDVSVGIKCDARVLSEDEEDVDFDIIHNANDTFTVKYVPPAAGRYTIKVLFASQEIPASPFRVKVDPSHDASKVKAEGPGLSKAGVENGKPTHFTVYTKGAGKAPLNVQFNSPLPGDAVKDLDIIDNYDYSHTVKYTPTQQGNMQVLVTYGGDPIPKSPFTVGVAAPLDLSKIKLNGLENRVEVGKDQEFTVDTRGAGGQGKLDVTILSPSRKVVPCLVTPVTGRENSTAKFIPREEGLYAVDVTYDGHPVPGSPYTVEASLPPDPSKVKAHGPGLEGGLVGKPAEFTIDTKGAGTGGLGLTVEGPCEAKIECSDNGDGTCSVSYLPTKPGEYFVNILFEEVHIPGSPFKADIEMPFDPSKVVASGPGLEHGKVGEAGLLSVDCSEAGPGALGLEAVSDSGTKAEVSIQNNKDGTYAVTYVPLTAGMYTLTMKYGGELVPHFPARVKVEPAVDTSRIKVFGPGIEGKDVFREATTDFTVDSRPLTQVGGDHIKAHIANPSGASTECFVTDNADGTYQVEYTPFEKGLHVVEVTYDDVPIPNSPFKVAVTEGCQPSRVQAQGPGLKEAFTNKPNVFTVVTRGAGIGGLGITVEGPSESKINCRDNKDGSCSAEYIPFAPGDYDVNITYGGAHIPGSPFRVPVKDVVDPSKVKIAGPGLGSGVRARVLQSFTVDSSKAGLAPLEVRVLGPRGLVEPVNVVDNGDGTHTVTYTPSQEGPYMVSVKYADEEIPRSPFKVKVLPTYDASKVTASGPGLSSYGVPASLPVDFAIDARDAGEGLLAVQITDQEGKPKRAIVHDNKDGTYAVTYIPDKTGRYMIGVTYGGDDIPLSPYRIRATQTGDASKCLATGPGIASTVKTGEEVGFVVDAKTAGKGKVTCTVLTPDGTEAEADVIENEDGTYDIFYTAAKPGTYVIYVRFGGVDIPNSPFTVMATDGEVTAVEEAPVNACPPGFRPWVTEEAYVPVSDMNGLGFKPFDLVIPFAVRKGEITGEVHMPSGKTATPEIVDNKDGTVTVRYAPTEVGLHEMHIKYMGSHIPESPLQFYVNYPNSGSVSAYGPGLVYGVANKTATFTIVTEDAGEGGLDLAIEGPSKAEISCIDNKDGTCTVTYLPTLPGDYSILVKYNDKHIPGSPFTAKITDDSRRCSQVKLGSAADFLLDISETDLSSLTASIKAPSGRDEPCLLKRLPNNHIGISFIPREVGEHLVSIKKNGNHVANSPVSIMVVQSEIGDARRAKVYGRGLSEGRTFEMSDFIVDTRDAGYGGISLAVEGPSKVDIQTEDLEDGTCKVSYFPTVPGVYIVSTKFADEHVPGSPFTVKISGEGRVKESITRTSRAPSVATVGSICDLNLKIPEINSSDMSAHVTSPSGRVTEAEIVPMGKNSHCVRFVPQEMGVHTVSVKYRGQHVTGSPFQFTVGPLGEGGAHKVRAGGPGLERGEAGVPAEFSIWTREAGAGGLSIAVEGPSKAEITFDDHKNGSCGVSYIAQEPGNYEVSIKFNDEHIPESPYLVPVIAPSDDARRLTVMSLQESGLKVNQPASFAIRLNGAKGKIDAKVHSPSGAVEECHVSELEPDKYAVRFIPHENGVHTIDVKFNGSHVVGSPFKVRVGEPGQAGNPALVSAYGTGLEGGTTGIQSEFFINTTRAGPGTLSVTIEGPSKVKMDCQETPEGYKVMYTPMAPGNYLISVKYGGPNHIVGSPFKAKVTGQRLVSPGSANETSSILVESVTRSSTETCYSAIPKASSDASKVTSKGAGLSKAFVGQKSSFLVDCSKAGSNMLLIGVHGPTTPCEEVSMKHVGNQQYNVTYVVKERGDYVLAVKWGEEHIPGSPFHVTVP
UniProt P02751, whole entry, looked up: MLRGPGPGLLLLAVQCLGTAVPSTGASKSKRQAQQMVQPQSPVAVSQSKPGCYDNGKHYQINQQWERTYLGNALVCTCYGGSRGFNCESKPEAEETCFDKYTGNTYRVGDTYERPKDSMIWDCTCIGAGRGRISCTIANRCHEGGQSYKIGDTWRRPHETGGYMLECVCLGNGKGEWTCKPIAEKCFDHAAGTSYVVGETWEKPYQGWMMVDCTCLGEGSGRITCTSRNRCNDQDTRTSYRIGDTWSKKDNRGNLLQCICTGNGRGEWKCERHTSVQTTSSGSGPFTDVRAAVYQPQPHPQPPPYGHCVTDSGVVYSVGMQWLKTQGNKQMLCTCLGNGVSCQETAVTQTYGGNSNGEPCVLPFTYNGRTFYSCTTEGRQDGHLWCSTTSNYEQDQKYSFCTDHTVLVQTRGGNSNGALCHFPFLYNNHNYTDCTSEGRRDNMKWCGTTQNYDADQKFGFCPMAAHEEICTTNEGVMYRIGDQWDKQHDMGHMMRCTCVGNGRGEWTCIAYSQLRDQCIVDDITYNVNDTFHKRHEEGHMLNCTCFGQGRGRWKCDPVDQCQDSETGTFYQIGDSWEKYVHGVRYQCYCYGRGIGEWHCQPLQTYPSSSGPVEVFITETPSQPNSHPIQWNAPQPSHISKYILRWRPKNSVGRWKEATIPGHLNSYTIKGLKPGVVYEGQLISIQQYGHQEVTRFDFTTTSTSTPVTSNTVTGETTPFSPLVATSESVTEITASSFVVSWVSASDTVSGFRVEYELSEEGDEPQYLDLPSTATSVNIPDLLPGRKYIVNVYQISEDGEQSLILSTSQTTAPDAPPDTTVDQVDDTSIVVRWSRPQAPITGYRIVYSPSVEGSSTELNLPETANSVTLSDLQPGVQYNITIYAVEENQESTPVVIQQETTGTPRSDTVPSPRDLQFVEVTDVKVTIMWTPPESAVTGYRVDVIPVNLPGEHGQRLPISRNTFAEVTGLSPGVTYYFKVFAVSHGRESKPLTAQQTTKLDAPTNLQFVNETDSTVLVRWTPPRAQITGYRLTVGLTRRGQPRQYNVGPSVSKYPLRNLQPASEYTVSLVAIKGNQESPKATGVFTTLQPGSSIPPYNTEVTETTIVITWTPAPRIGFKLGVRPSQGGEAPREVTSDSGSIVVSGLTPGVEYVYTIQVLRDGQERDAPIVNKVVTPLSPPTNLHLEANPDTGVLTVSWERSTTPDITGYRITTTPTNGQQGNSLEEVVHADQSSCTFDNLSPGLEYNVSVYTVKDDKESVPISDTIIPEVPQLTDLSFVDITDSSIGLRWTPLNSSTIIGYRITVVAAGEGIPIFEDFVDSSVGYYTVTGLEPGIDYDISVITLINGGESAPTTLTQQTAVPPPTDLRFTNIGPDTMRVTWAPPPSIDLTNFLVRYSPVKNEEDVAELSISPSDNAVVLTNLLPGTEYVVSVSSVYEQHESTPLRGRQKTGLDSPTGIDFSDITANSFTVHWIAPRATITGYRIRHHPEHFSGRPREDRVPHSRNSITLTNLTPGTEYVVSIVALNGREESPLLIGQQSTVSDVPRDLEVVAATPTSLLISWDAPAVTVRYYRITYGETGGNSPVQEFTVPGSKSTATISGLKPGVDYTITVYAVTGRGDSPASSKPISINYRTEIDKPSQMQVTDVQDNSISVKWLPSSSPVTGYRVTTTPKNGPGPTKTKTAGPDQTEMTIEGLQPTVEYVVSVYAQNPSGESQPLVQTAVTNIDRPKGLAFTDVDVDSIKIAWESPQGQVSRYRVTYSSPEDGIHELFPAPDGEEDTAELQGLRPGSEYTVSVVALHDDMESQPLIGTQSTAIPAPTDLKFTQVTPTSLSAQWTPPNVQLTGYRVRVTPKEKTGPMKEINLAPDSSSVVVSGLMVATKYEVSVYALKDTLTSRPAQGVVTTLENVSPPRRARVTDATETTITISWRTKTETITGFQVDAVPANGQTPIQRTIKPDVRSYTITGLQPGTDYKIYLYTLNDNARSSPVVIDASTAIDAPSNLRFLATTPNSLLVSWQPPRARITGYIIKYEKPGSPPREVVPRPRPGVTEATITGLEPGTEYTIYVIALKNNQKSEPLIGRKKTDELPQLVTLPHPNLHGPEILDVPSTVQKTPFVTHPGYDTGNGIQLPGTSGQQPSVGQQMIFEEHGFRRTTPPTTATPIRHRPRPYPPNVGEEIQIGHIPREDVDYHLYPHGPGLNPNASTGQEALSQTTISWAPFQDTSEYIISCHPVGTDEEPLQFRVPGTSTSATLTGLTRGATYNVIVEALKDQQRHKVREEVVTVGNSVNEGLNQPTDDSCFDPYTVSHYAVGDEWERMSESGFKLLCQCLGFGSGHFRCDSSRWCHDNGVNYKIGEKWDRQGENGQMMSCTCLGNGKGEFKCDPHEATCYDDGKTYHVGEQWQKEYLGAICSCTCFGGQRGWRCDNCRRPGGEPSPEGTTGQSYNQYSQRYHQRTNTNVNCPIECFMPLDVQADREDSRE
UniProt Q00688: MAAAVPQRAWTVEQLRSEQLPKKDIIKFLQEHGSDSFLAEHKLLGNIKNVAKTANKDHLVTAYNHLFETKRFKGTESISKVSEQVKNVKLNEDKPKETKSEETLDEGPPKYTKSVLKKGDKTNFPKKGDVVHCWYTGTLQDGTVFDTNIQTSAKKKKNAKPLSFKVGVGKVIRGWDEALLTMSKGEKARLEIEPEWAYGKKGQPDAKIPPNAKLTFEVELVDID
UniProt Q96GI7: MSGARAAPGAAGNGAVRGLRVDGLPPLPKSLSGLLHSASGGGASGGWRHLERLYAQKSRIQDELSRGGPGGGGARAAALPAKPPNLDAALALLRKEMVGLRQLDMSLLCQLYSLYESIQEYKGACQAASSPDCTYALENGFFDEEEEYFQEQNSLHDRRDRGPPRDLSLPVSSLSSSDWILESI
UniProt O95466, whole entry, looked up: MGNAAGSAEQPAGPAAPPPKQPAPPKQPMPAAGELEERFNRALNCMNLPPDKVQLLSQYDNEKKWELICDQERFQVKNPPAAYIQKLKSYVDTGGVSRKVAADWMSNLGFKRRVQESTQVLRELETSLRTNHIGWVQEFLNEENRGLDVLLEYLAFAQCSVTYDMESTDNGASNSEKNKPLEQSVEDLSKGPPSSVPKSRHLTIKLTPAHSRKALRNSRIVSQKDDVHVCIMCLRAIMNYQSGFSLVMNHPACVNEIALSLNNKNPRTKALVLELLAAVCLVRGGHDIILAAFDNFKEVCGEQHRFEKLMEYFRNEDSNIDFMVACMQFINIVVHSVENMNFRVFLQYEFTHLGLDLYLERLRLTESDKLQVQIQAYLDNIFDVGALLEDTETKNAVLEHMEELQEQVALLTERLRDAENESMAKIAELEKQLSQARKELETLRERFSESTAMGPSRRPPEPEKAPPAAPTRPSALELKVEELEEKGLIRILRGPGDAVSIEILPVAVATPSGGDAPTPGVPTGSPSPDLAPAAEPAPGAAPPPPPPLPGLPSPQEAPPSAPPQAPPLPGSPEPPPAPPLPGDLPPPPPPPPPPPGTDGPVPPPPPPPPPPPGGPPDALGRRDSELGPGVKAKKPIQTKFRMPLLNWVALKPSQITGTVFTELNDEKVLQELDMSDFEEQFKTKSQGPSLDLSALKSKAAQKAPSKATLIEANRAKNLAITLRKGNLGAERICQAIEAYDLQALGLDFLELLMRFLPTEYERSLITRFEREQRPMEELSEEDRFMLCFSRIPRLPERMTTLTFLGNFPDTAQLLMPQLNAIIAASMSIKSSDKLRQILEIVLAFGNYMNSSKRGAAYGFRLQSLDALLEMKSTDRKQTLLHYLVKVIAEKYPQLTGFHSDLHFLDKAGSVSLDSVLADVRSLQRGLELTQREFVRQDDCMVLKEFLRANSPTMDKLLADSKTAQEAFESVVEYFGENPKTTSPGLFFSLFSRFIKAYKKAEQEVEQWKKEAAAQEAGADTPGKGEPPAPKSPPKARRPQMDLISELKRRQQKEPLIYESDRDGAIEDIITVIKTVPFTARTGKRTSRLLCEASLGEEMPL

Experiments:
Experiment in all cases: log2 fold change, soluble protein after heating vs DMSO (PISA); higher = thermal stabilisation; K562 lysate, 10 uM; active = over 0.2 and 3.5 SD of the protein, either way, in both replicates (recomputed)
[1] = compound: C=CC(=O)N1CCC[C@@H](n2nc(-c3ccc(Oc4ccccc4)cc3)c3c(N)ncnc32)C1 [ibrutinib]
Method in brief: (§1)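 Thermal stability, expressed as log-two fold change relative to solvent controls, is given from duplicates. Crude K562 extract in PBS pH 7.4 with 1 mM MgCl2, at 1 mg/mL protein, was treated with 10 μM compound for 30 min and heated in aliquots for 3 min across 48°C-58°C. After pooling, adjustment to 0.5% NP-40 at 4°C and centrifugation at 21,000xg for 90 min, supernatant protein was measured by TMTpro 16plex LC-MS/MS with channel sums equalised.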

[2] = compound: CC(=O)c1cnc2ccc(-c3cc(Cl)c(O)c(Cl)c3)nc2c1N[C@H]1CC[C@H](CN(C)C)CC1
Method in brief: as §1

[3] = compound: CC(C)(C)Cn1c(N)nc2ccc(-c3[nH]c(C(C)(C)C)nc3-c3ccc(F)cc3)nc21 [ralimetinib]
Method in brief: as §1

[4] = compound: CC(C)(O)CC(=O)NCCn1ccc2ncnc(Nc3ccc(Oc4cccc(C(F)(F)F)c4)c(Cl)c3)c21
Method in brief: as §1

[5] = compound: CC(C)C1=C2N=C(C=C(N2N=C1)NCC3=CC=CC=C3)NCCCCCCN
Method in brief: as §1

[6] = compound: CC1=C(C(CC(=O)N1)C2=CC=C(C=C2)C(F)(F)F)C(=O)NC3=C(C=C4C(=C3)C=NN4)F
Method in brief: as §1

[7] = compound: CC1=C(C2=C(C=C1)C(=O)C3=CC=CC=C3N2CCCN)C
Method in brief: as §1

[8] = compound: CC1=C(C=C(C=C1)NC(=O)C2=CC(=CC=C2)C(C)(C)C#N)NC3=CC4=C(C=C3)N=CN(C4=O)C
Method in brief: as §1

[9] = compound: CC1=C(C=C(C=C1)NC(=O)C2=CC(=CC=C2)N(C)C)NC(=O)C3=CC=C(C=C3)O
Method in brief: as §1

[10] = compound: CC1=CC=C(C=C1)SC2=C3C=C(SC3=CN=C2)C(=O)N
Method in brief: as §1

Measured: log2 fold change

FLNB isoform 8 (UniProt O75369)
inactive: [1] 0.016 | [2] -0.01 | [3] 0.001 | [4] -0.009 | [5] -0.008 | [6] -0.007 | [7] 0.026 | [8] 0.02 | [9] 0 | [10] -0.011

FGGY isoform 3 (UniProt Q96C11)
inactive: [1] 0.279 | [2] -0.042 | [3] -0.029 | [4] -0.006 | [5] -0.046 | [6] -0.022 | [7] 0.033 | [8] 0.122 | [9] -0.073 | [10] 0.025

FN1 (UniProt P02751)
inactive: [1] 0.02 | [2] -0.019 | [3] -0.001 | [4] -0.018 | [5] -0.015 | [6] 0.022 | [7] -0.039 | [8] -0.004 | [9] 0.046 | [10] -0.012

FLII (UniProt Q13045)
inactive: [1] -0.012 | [2] 0.017 | [3] -0.001 | [4] 0.012 | [5] 0.007 | [6] -0.006 | [7] -0.019 | [8] 0.013 | [9] 0.018 | [10] 0.005

FKBP3 (UniProt Q00688)
inactive: [1] -0.036 | [2] -0.013 | [3] -0.002 | [4] -0.003 | [5] 0.044 | [6] -0.027 | [7] 0.016 | [8] 0.008 | [9] -0.017 | [10] -0.017

FCSK (UniProt Q8N0W3)
inactive: [1] 0.056 | [2] -0.012 | [3] 0.019 | [4] -0.028 | [5] -0.026 | [6] -0.016 | [7] -0.008 | [8] 0.011 | [9] 0.003 | [10] -0.013

FAM89A (UniProt Q96GI7)
inactive: [1] -0.022 | [2] -0.007 | [3] -0.032 | [4] -0.014 | [5] 0.029 | [6] 0.025 | [7] -0.01 | [8] 0.067 | [9] -0.069 | [10] -0.107

FGF2 (UniProt P09038)
inactive: [1] 0.089 | [2] 0.008 | [3] 0.008 | [4] -0.06 | [5] -0.058 | [6] -0.007 | [7] -0.039 | [8] -0.056 | [9] 0.008 | [10] 0.032

FIG4 (UniProt Q92562)
inactive: [1] 0.14 | [2] -0.07 | [3] -0.01 | [4] -0.115 | [5] -0.012 | [6] -0.248 | [7] 0.029 | [8] -0.093 | [9] -0.085 | [10] 0.012

FLOT1 (UniProt O75955)
inactive: [1] -0.005 | [2] 0.005 | [3] -0.013 | [4] -0.032 | [5] -0.009 | [6] -0.002 | [7] -0.003 | [8] 0.013 | [9] -0.008 | [10] -0.025

Taken from the entries so far (2 entries):
FKBP3 (UniProt Q00688)
inactive: [1] -0.036 | [2] -0.013 | [3] -0.002 | [4] -0.003 | [5] 0.044 | [6] -0.027 | [7] 0.016 | [8] 0.008 | [9] -0.017 | [10] -0.017

FCSK (UniProt Q8N0W3)
inactive: [1] 0.056 | [2] -0.012 | [3] 0.019 | [4] -0.028 | [5] -0.026 | [6] -0.016 | [7] -0.008 | [8] 0.011 | [9] 0.003 | [10] -0.013

More results follow.

FBXO3 (UniProt Q9UK99)
inactive: [1] 0.029 | [2] 0.003 | [3] -0.025 | [4] 0.024 | [5] -0.032 | [6] 0.049 | [7] 0.008 | [8] -0.054 | [9] 0.012 | [10] -0.033

FANCL isoform 2 (UniProt Q9NW38)
inactive: [1] 0.008 | [2] -0.327 | [3] 0.051 | [4] 0.002 | [5] -0.04 | [6] -0.055 | [7] -0.068 | [8] 0.128 | [9] -0.025 | [10] -0.113

FBXO30 (UniProt Q8TB52)
inactive: [1] 0.022 | [2] -0.007 | [3] 0.057 | [4] 0.046 | [5] -0.009 | [6] -0.003 | [7] 0.013 | [8] 0.016 | [9] 0.006 | [10] 0.016

FANCD2 isoform 1 (UniProt Q9BXW9)
inactive: [1] 0.01 | [2] -0.009 | [3] 0 | [4] -0.066 | [5] 0.048 | [6] -0.02 | [7] -0.068 | [8] 0.071 | [9] 0.011 | [10] -0.008

FLOT2 (UniProt Q14254)
inactive: [1] 0.006 | [2] -0.016 | [3] -0.003 | [4] -0.023 | [5] -0.009 | [6] -0.045 | [7] -0.014 | [8] -0.003 | [9] 0.005 | [10] -0.015

FNTA (UniProt P49354)
inactive: [1] 0.011 | [2] 0.006 | [3] -0.031 | [4] -0.006 | [5] -0.021 | [6] 0.016 | [7] -0.006 | [8] 0.049 | [9] -0.014 | [10] 0.012

FKBP9 (UniProt O95302)
inactive: [1] 0.062 | [2] -0.002 | [3] 0.036 | [4] -0.011 | [5] -0.004 | [6] 0.006 | [7] 0.025 | [8] -0.023 | [9] 0.024 | [10] -0.039

FNBP1L (UniProt Q5T0N5)
inactive: [1] 0.034 | [2] -0.006 | [3] 0.055 | [4] -0.082 | [5] -0.003 | [6] 0 | [7] 0.066 | [8] -0.007 | [9] 0.035 | [10] 0.034

FKBP15 (UniProt Q5T1M5)
inactive: [1] 0.001 | [2] -0.032 | [3] 0.013 | [4] -0.062 | [5] 0.003 | [6] 0.02 | [7] -0.01 | [8] 0.014 | [9] 0.032 | [10] -0.016

FASN (UniProt P49327)
inactive: [1] -0.009 | [2] -0.012 | [3] 0.005 | [4] 0.01 | [5] 0.016 | [6] -0.018 | [7] 0.006 | [8] 0.026 | [9] -0.008 | [10] 0.014

FANCI (UniProt Q9NVI1)
inactive: [1] -0.024 | [2] 0.022 | [3] 0.02 | [4] -0.024 | [5] -0.038 | [6] -0.021 | [7] 0.026 | [8] 0.002 | [9] 0.033 | [10] 0.014

FLNA (UniProt P21333)
inactive: [1] 0 | [2] -0.01 | [3] 0.006 | [4] -0.024 | [5] 0.01 | [6] -0.016 | [7] 0.028 | [8] 0.032 | [9] -0.009 | [10] -0.002

FMNL1 isoform 3 (UniProt O95466)
inactive: [1] 0.043 | [2] -0.002 | [3] 0.038 | [4] -0.02 | [5] 0.023 | [6] 0.099 | [7] 0.03 | [8] 0.073 | [9] 0.015 | [10] 0.001

FKBP14 (UniProt Q9NWM8)
inactive: [1] -0.016 | [2] -0.007 | [3] 0.03 | [4] -0.036 | [5] 0.005 | [6] -0.01 | [7] 0.024 | [8] -0.061 | [9] -0.037 | [10] 0.03

FBXO4 (UniProt Q9UKT5)
inactive: [1] 0.023 | [2] -0.011 | [3] 0.02 | [4] -0.009 | [5] -0.008 | [6] -0.024 | [7] 0.003 | [8] 0.026 | [9] -0.007 | [10] -0.025

FBXO11 isoform 5 (UniProt Q86XK2)
inactive: [1] -0.131 | [2] 0.13 | [3] -0.019 | [4] 0.146 | [5] 0.024 | [6] -0.079 | [7] -0.059 | [8] 0.005 | [9] -0.051 | [10] -0.011

FLNC (UniProt Q14315)
inactive: [1] 0.002 | [2] -0.01 | [3] 0.003 | [4] -0.013 | [5] -0.01 | [6] -0.003 | [7] 0 | [8] 0.01 | [9] -0.015 | [10] -0.012

FN3K (UniProt Q9H479)
inactive: [1] -0.003 | [2] -0.009 | [3] -0.001 | [4] 0.013 | [5] -0.015 | [6] -0.003 | [7] 0.002 | [8] 0.021 | [9] 0.003 | [10] 0.031

FAM98C (UniProt Q17RN3)
inactive: [1] 0.172 | [2] 0.032 | [3] -0.133 | [4] -0.08 | [5] -0.026 | [6] 0.078 | [7] -0.108 | [8] 0.058 | [9] 0.022 | [10] -0.04

FARP2 (UniProt O94887)
inactive: [1] 0.004 | [2] -0.076 | [3] 0.037 | [4] 0.003 | [5] -0.02 | [6] 0.065 | [7] -0.155 | [8] 0.02 | [9] -0.047 | [10] 0.017
